Library screening results

Protein sequences, listed by entry. Tags and fused reporters are not part of them.
UniProt E9BF75, entry or part of it: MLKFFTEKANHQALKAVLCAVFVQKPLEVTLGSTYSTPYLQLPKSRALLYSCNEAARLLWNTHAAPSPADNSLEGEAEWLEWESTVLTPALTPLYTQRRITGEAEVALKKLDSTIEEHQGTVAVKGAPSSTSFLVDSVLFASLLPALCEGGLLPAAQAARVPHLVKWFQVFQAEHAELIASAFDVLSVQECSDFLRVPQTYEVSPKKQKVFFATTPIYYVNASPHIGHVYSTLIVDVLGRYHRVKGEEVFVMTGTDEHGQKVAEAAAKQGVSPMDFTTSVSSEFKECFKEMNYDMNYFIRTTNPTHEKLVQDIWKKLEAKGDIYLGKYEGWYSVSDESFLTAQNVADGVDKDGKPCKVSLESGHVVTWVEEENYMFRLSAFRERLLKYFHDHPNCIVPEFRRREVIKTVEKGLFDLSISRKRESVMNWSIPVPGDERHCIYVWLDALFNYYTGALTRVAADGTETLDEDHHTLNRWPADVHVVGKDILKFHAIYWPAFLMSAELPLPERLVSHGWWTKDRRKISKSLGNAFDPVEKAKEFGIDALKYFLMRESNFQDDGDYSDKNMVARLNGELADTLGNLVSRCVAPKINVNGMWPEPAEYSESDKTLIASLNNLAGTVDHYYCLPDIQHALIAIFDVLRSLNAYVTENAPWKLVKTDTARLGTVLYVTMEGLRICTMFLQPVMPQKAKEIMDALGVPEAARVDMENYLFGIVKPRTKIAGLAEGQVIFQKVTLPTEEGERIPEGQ

Measurements from “University of Dundee, Small-Polar-MMV Screening Library” (2021), ChEMBL document CHEMBL3988442.

Results are percentages, as filed. The record does not define 0% and 100%; most values in the screen are far below 50% and negative numbers occur (in some assays of this library far below -100). This is an unselected part of the compounds tested. A dash means the value is not listed here; it may have been measured.

Mtb heat-shock: 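Assay on Mycobacterium tuberculosis, filed only as a heat shock assay from Cornell; the read-out is not stated. The concentration is filed as 10 mM, unlikely as a test dose, so the dose is not known. Direction is inferred from retests: higher values go with stronger inhibition. About 69,000 compounds were tested under these conditions; 1.4% (about 930) showed 50% or more at least once.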
Mtb growth Cornell: 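Whole-cell assay for inhibitors of Mycobacterium tuberculosis growth, labelled Cornell in the record; the read-out is not stated. The concentration is filed as 10 mM, unlikely as a test dose, so the dose is not known. Higher means stronger inhibition (inferred from two other growth screens of the library). Of about 53,000 compounds tested this way, about 900 (1.7%) reached 50% or more in at least one test.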
LdMetRS: 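Primary screen of methionyl-tRNA synthetase; the read-out is not stated. Target: Methionyl-tRNA synthetase (putative), Leishmania donovani (UniProt E9BF75). The test concentration is not given. The values are filed as inhibition. Size under these conditions: about 68,000 compounds, about 24 of them at 50% or above in at least one test.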

Compound,Mtb heat-shock,Mtb growth Cornell,LdMetRS
CC(C)CN1CCC2(CC(C(=O)NCc3cccnc3)=NO2)C1 (centres undefined),-13.5,7.899,14.81
Cc1nccn1-c1cccc(C2CCCN(C(=O)c3cc[nH]n3)C2)n1 (centres undefined),-16.89,-,-5.245
O=C(NCCN1CCCC1)C1(c2ccc(Cl)cc2)CCOCC1,5.293,-,17.21
CCOc1ccccc1C(=O)NC(CC(=O)O)c1cccs1 (centres undefined),-1.776,-11.7,20.34
CC(=O)N1CC2(CCCN2Cc2ccc(Cl)cc2)Cc2ccccc21 (centres undefined),-10.98,-,10.86
O=C(Cc1cccnc1)N1C[C@@H]2CC[C@H](C1)N(Cc1ccccc1)C2=O,-,-,4.27
CN1CCCCC1(C)C(=O)N1CCC(c2ccccn2)CC1 (centres undefined),-13.09,20.63,8.721
CC(C)n1cnnc1CN(C)C1CCCNC1 (centres undefined),2.269,-20.5,20.77
CNC(=O)CN(C)C(=O)Cc1csc(C(C)C)n1,6.876,-23.36,6.72
COCC(=O)N1CCCC(c2noc3nc(C)cc(C(F)(F)F)c23)C1 (centres undefined),-24.23,-32.52,5.825
CCCC(=O)N1CCN(Cc2cc(-c3ccncc3)nn2C)CC1,-7.394,-43.29,10.94
CNC(=O)[C@@]12CCO[C@@H]1CCN(S(=O)(=O)c1ccc(C)cc1)C2,-,-,-2.747
Cc1cccc(C(=O)N2CCC3(CC2)CC(c2ccccc2)C(=O)N3)c1 (centres undefined),-28.58,15.46,7.407
O=C(c1cccc(OCc2cscn2)c1)N1CCOCC1,9.339,-,18.2
Cc1cccc(C(=O)N2CCCCC2c2ccc(CN(C)C)cc2)c1 (centres undefined),21.95,-,10.44
Cc1nc(N2CCOCC2)nc2c1CCN(C(=O)C1CC1)CC2,-16.75,1.099,13.54
Cc1ccc(CN2CCCC3(CCCN3S(C)(=O)=O)C2)s1 (centres undefined),-,-,21.29
CC(C)(C)c1nc(CN2CCN(C(=O)c3cnccn3)CC2)cs1,23.81,-,18.1
O=C(Cc1ccccn1)N1CCc2ncnc(N3CCCC3)c2CC1,-,-,19.26
CN(CCS(=O)(=O)c1cc(Cl)ccc1Cl)CC(=O)Nc1cccc(F)c1,-3.78,108.9,15.49
Cc1cnc(CN(C)C2CCN(Cc3nc4ccccc4n3C)C2)o1 (centres undefined),96.91,-,11.89
Cn1ccnc1CN1CCC2(CC1)CC(N1CCCC1)c1ccccc12 (centres undefined),6.735,9.887,5.464
CCc1nc(Cn2c(=O)n(C)c3ccccc32)no1,9.6,8.11,17.79
CC(O)CN1CCN(C(=O)c2ccnc(N(C)C)c2)CC1 (centres undefined),1.372,6.367,15.76
[H][C@@]12C[C@@H](c3nc(C)no3)CN(S(=O)(=O)N(C)C)[C@]1([H])CCO2,-1.457,10.99,-
Cc1noc([C@@H]2C[C@@H]3CCN(c4nnc(C)s4)C[C@H]3O2)n1,-,-,5.714
CC1(C(=O)NCCCOc2ccccc2F)CC(=O)N2C=CC=CC2=N1 (centres undefined),-8.874,24.68,20.44
CCC(=O)N1CCC2(COCc3cnc(NCc4ccco4)nc32)C1 (centres undefined),-16.46,-,19.29
c1csc(CN2C[C@@H]3OCCN(CC4CCCO4)[C@@H]3C2)c1 (some centres undefined),-,-,21.5
CC(C)Nc1nc2c(c(NC3CC3)n1)CN(C(=O)Cc1ccsc1)CC2,15.35,-22.95,11.59
Cc1c[nH]nc1C1CCCCN1C(=O)CNS(C)(=O)=O (centres undefined),-20.34,-,0.7059
COCC1CN(Cc2ccoc2)Cc2nn(C)cc21.O=C(O)C(F)(F)F (centres undefined),-21.53,20.42,-
COc1ccc(CN(C(=O)C2CCCS2)c2ccncc2)cc1 (centres undefined),99.59,-,6.211
[H][C@@]12CCN(C[C@@H]1C(=O)NC1CCCCC1)[C@@H](Cn1cc(CNC)nn1)C2,5.438,6.698,-
C[C@@H]1CN(C(=O)c2cccn2C)C[C@]12CCN(c1ccsc1)C2=O,4.072,-10.68,7.463
Cn1nc(CN2CCCCC2)c2c1CN(C(=O)c1cccc(C#N)c1)C2,-,-,1.25
Cn1ccnc1CCNC(=O)NCCC1CCCCO1 (centres undefined),9.724,-5.306,17.96
CCC(=O)Nc1cccc(OCC(=O)N(C)CCCC2CCCO2)c1 (centres undefined),-8.933,-42.16,10.3
CC(=O)N1CCN(C(=O)NCc2ccccc2Cn2ccnc2)CC1,-37.39,8.401,12.37
CC(NC(=O)Cn1cccn1)c1cccnc1 (centres undefined),-4.435,9.756,11.71
O=C(CCn1cncn1)NC1CCc2nccn2C1 (centres undefined),7.687,-0.8354,13.13
CN(CC(=O)N1CCCC1)C(=O)c1ccccc1Nc1ccccc1,-4.584,-,-5.59
CC(C)n1nc2c(cc1=O)CN(CCOc1ccc(C#N)cc1)CC2,3.069,27.72,20.96
Cc1ccn(Cc2nc(CC(C)C)no2)c(=O)c1,0.4117,16.8,1.393
c1cc(CN2C[C@H](OCC3CCOCC3)[C@H]3COC[C@H]32)cs1,-,-,16.62
CCOCC(=O)N1C[C@@H]2CCN(c3cnccn3)C[C@@H]2C1,-,-,11.86
[H][C@@]12COC[C@]1([H])[C@@H](OCc1cccnc1)CN2C(=O)c1cscn1,-32.21,-,-
O=C(c1ccno1)N1CCOC[C@H](Oc2ccccc2)C1,-1.078,-27.19,14.58
COc1ccccc1OCc1cc(C(=O)N2CCC(NC(C)=O)C2)n[nH]1 (centres undefined),-27.87,-19.79,7.116
CC(=O)N1CCCN(C(C)C(=O)Nc2ccnn2C(C)C)CC1 (centres undefined),-3.856,-,-
CC(C)C(O)CCNC(=O)Nc1cc(F)ccc1-n1cccn1 (centres undefined),23.87,-,-1.989
COc1cccc(Oc2nc(C)c(C(=O)O)s2)c1OC,-5.09,5.87,16.53
[H][C@@]12CCN(C(=O)c3cccnc3OC)C[C@@]1([H])O[C@H](c1nccs1)C2,7.924,14.48,-
Cc1ccc(CC(=O)N2Cc3nccn3CC(CN(C)C)C2)cc1.O=C(O)C(F)(F)F (centres undefined),-40.56,34.94,-
Cc1cc(CN(C)C(C(=O)O)c2cccc(C(F)(F)F)c2)on1 (centres undefined),4.717,-,12.61
CN(C)C(=O)COC[C@]12COC[C@H]1CN(Cc1ccccc1)C2,-,-,17.26
CN(Cc1ccnc2ccccc12)C1CCS(=O)(=O)C1 (centres undefined),-,-,14.56
NS(=O)(=O)c1cnn(-c2ccc(NC(=O)CC3CCCC3)cn2)c1,15.66,15.22,19.16
COCc1ccccc1C(=O)N1CCC(CNC(=O)OC(C)(C)C)C1 (centres undefined),14.55,-13.71,6.747
Cc1csc(N2CCCN(C(=O)CCN3CCCC3=O)CC2)n1,-12.37,-,4.83
COc1ccccc1OCc1nc(C(C)C)no1,-5.589,14.49,8.571
CC1CCC(NCCNC(=O)c2cccs2)CC1 (centres undefined),2.675,4.021,9.677
O=C1CO[C@@H]2CN(S(=O)(=O)c3ccc(F)cc3)C[C@H]2N1,-,-,7.143
O=C(NCc1cn2c(n1)CN(Cc1ccncc1)CC2)C1CCC1.O=C(O)C(F)(F)F.O=C(O)C(F)(F)F,-18.38,-10.62,-
c1cnnc(NCC2CN(Cc3cccc4c3OCCO4)CCO2)c1 (centres undefined),12.67,-31.76,13.36
[H][C@]12CC[C@]([H])(CN(S(=O)(=O)N(C)C)C1)N(C(=O)c1ccc(C)cc1O)C2,-21.2,-13.19,-
N#CCCN(CC1CCOC1)S(=O)(=O)c1cccc(Cl)c1 (centres undefined),-8.29,25.98,15.86
CCCc1nc(NCC(=O)N2CCOCC2)c2c(n1)c(C)nn2CC,-23.18,-,-29.4
CN(C)CCN(C)C1CCN(C(C(=O)O)c2ccc(F)c(Cl)c2)CC1 (centres undefined),-2,-,9.661

For reference, 9 entries once more:

Compound,Mtb heat-shock,Mtb growth Cornell,LdMetRS
CN(CC(=O)N1CCCC1)C(=O)c1ccccc1Nc1ccccc1,-4.584,-,-5.59
CC1(C(=O)NCCCOc2ccccc2F)CC(=O)N2C=CC=CC2=N1 (centres undefined),-8.874,24.68,20.44
Cn1nc(CN2CCCCC2)c2c1CN(C(=O)c1cccc(C#N)c1)C2,-,-,1.25
Cc1cc(CN(C)C(C(=O)O)c2cccc(C(F)(F)F)c2)on1 (centres undefined),4.717,-,12.61
CCCC(=O)N1CCN(Cc2cc(-c3ccncc3)nn2C)CC1,-7.394,-43.29,10.94
COc1ccccc1OCc1cc(C(=O)N2CCC(NC(C)=O)C2)n[nH]1 (centres undefined),-27.87,-19.79,7.116
O=C(NCCN1CCCC1)C1(c2ccc(Cl)cc2)CCOCC1,5.293,-,17.21
[H][C@@]12COC[C@]1([H])[C@@H](OCc1cccnc1)CN2C(=O)c1cscn1,-32.21,-,-
CC(NC(=O)Cn1cccn1)c1cccnc1 (centres undefined),-4.435,9.756,11.71